These results are taken from publication PMC10724061.

No constants are given. Whether binding was seen depends on the method and setting. In cells and extracts the contact can be indirect. A result given as binding can be weak or reduced; the word gives no strength. Sequences can lack the tags named with a protein.

For the assay, the target named is Flag–FIO1–GFP (Arabidopsis). Nature of the assay: co-IP; 6-day-old Arabidopsis plants pACT2::Flag–FIO1–GFP x 35S::SPA1–Myc grown under blue light (25 μmol m^−2 s^−1); Flag resin for IP; blot with anti-Flag or anti-Myc.

B1: SPA1–Myc (protein, UniProt Q9SYX2 1-1029)
chain: MPVMERVAEETVATNNIQLKARVDDVPCNKLDARHNDMVIQSETANSDCPGSSAHRNVDLTKPPPPEEAAGAKLSVEELTLGNYRIVQGSNNTNVDSPRAGKFEHLYRLARGSAFRAGDGDLDSQPRDMDQMLSRIRQQLAGAPSERQNLKPFMSRRSDQNLEAFSERLRAAGENSIMNAPALISEGVQMKTPVSSSNFSQLLLKRAMKGKGVVGKNQETPPEFVSDQDLGSKEKKLDISKSPTPHDVLPLKSSPKGNGMVSHGDGNHSKSSIGISLREFLRSSYAKREKRHGLCLFRQLVELVDSAHSKRLFLLDLRPSLFTLVPSKKLRYIGNFGKNDLESDVDEDLNRRRPVVEESSSGGRDSKKRKMDLHLNSPGNQLQATSTGRPFKRKSPVIDLNMVDARNPDSCELQQQDYIKNLSVSSVSRKQSMSTWLEEQWYTCPEEINGEDIGEKSNIYALGVLLFELLCHCESGEMHAAMMADLRHRILPPTFLSKYPKEAGFCLWLLHPEPSSRPSARDILKSELICEDDSVKSTAAAEEISELLLHFLSSLEVQKKKKASKLLQDIQTLEDDIKEAERRYSSNVSLVRSHGAIEKRVQSSPLDEHCTTSSALFVPTANTDRLMSNIRQLEDAYFFMRSQINLSSSAATARSDKTLKDRDRCSENQNENQDMSTKGKSSDQLEVFFEGLCKFARYSKFETCGTIRSGDLLNSASVVCSLSFDPDEEHIAAAGISKKIKIFDFNAFMNESVGVHYPLVEMVNKSKLSCVCWNSYIKNYLASTDYDGVVQIWDAGTGQGFSQYTEHQKRAWSVDFSPSDPTKFVSGSDDCSVKLWSINEKRSLGTIWSPANVCCVQFSSYSNHLLAFGSADYKVYCYDLRYVKTPWCTLAGHEKAVSYVKFMDSETIVSASTDNSLKLWNLNKTNSSGLSPGACSLTYKGHTNQKNFVGLSVLDGYIACGSETNEVYSYYKSLPMPMTSYKFGSVDPISGNEYFDDNGQFVSSVCWRKKSNMLVAANSTGNMKLLKLV
On to B1, for which the binding result was “binds”.
